# Experimental data as given in the supplement of paper PMC12578635.
# Some of the results follow. Cut-off read from the data, not from the text of the source: active = 150% or more and inactive = the rest. Single values are uncertain, as repeats are few or missing.
# Test system: Staphylococcus aureus JE2-lux inside RAW 264.7 macrophages
# Assay: intracellular bacterial bioluminescence relative to DMSO vehicle; higher = higher intracellular bacterial metabolic activity
# Settings: 10 µM; treatment time 4 h; gentamicin 50 µg/ml
row,Compound,intracellular bacterial bioluminescence
1,O=C(Cn1cccc1-c1nc(-c2ccccc2)cs1)N1CC=C(c2ccccc2)CC1,inactive: 104%
2,COc1ccc2cc(CCNC(=O)c3cccc(C(F)(F)F)c3)c(=O)[nH]c2c1,inactive: 90.5%
3,CCCCCCCNC(=O)c1c(N)n(/N=C/c2ccco2)c2nc3ccccc3nc12,inactive: 96.9%
4,COC(=O)c1ccc(C(=O)NNc2nc3c(C)cc(C)cc3s2)cc1,inactive: 93.2%
5,N#Cc1c(O)nc(N2CCCCC2)nc1-c1ccc2c(c1)OCO2,inactive: 130%
6,CCOC(=O)c1ccccc1NC(=O)CSc1ncc(CO)n1Cc1ccc(OC)cc1,inactive: 106%
7,NC(=O)c1ccccc1NC(=O)c1cccn(OCc2ccccc2F)c1=O,inactive: 74.7%
8,Cc1ccccc1-c1nc2sc(N3CCN(CC(=O)N4CCCC4)CC3)nn2c1NC(C)(C)C,inactive: 93.3%
9,O=C(Cc1cc(=O)[nH]c(=O)[nH]1)N1CCN(C(=O)c2ccco2)CC1,inactive: 105%
10,Cc1cc(=O)n2nc(NCc3ccc(C(=O)Nc4ccc(C)c(Cl)c4)cc3)nc2[nH]1,inactive: 110%
11,O=C(CSc1ncccc1C(=O)O)Nc1ccc(Cl)cc1,inactive: 117%
12,COc1ccc(N2CC(NC(=O)Nc3nc4ccc(C)cc4s3)CC2=O)cc1OC (stereo unspecified),inactive: 103%
13,Cc1ccc(S(=O)(=O)CCCC(=O)Nc2ccc3c(c2)C(=O)NC3=O)cc1,inactive: 120%
14,Cc1ccc(OCC(=O)N/N=C/c2ccccc2O)cc1,inactive: 108%
15,Cc1cc(Cl)ccc1OCC(=O)Nc1ccc(S(=O)(=O)Nc2onc(C)c2C)cc1,inactive: 86.2%
16,O=C1Nc2ccc(S(=O)(=O)N(CCO)CCO)c3cccc1c23,inactive: 109%
17,CCc1ccc(S(=O)(=O)c2c(C(=O)N3CCCC3)cnc3ccc(C)cc23)cc1,inactive: 71.2%
18,CCOc1ccc(-n2ccnc(NCc3ccc4c(c3)OCO4)c2=O)cc1,inactive: 85.7%
19,CC1CC(C)CN(C(=O)c2cccn3c(-c4ccc(F)cc4)nnc23)C1 (stereo unspecified),inactive: 38.3%
20,COc1cc(NS(=O)(=O)c2cc(-c3nc(C)cs3)cs2)cc(OC)c1,inactive: 85.8%
21,CCc1cccc(OCC(O)Cn2c(N3CCN(C)CC3)nc3c2c(=O)[nH]c(=O)n3C)c1 (stereo unspecified),inactive: 107%
22,Cc1c(C(=O)C2=C(O)C(=O)N(CCN(C)C)C2c2ccco2)cnn1-c1ccccc1 (stereo unspecified),inactive: 84.4%
23,COc1cccc(NC(=O)CSc2nc(-c3ccccc3)nc3c2Cc2cccc(OC)c2O3)c1,inactive: 105%

row,Compound,intracellular bacterial bioluminescence
1,NC(=O)c1ccc(NC(=O)C(=O)Nc2cccc(N3CCCC3=O)c2)cc1,inactive: 124%
2,CCOC(=O)c1oc2ccccc2c1NC(=O)Cc1cccs1,inactive: 92.6%
3,N#C/C(=C\c1ccc(-c2ccc([N+](=O)[O-])cc2)o1)c1nc(-c2cccs2)cs1,inactive: 120%
4,Cc1nnc2ccc(-n3ncc4c3NC(=O)CC4c3ccccc3OC(C)C)nn12 (stereo unspecified),inactive: 88.3%
5,C[C@@H]1CN(Cc2ccccc2F)CCN1CC(=O)N1CC(=O)Nc2ccccc21,inactive: 87%
6,CCOc1ccc2c(c1)c(=O)c(C(=O)c1ccccc1)cn2CC(=O)Nc1cccc(OC)c1,inactive: 88.4%
7,NC(=O)COC(=O)c1cccc2c1-c1ccccc1C2=O,inactive: 111%
8,O=C(Nc1nnc(-c2ccc(Br)cc2)s1)C1CC1,inactive: 102%
9,O=C(CCn1cnc(-c2ccccc2)c1-c1ccccc1)N/N=C/c1ccco1,inactive: 86.4%
10,COc1ccc(N2CCN(Cc3nc4c(c(=O)n(C)c(=O)n4C)n3CC(C)=O)CC2)cc1,inactive: 108%
11,Cc1cccc(-c2nc3n(CC(=O)N(CCO)Cc4ccccc4)c(C)cc(=O)n3n2)c1,inactive: 97.7%
12,CCCCOC(=O)c1ccc(Nc2ncnc3c2cnn3-c2ccccc2)cc1,inactive: 83.8%
13,CC(=O)Oc1ccccc1C(=O)Oc1ccc(/C=N\n2cnnc2)cc1,inactive: 112%
14,Cc1ccc(CN2C3CCCC2CC(NC(=O)NCc2ccccc2)C3)cc1 (stereo unspecified),inactive: 98%
15,COc1ccc2c(c1)s/c(=N\C(=O)CSCC(=O)N1CCc3ccccc31)n2C,inactive: 87.3%
16,O=C(N/N=C/c1c(F)cccc1Cl)c1n[nH]c2c1CCC2,inactive: 100%
17,COc1ccc2nc(Nc3nc4ccc(S(C)(=O)=O)cc4s3)sc2c1,inactive: 95.3%
18,COc1ccc(S(=O)(=O)NC(=N)NCCc2c[nH]c3ccc(F)cc23)cc1,inactive: 104%
19,COc1cc(Nc2cc(C)nc3ncnn23)cc(OC)c1,inactive: 80.9%
20,O=C(CSc1nc(-c2ccccc2)no1)Nc1ccccc1Cl,inactive: 87.8%
21,CC1CCCN(c2ccc3cccc(OCC(=O)Nc4ccc5c(c4)OCO5)c3n2)C1 (stereo unspecified),inactive: 95%
22,Cc1cc(NC(=O)COc2ccc3ccccc3c2)nc2c1c(=O)oc1ccccc12,inactive: 79.6%
23,CCOc1ccc(CCNC(=O)c2nnn(CC(=O)Nc3cc(C)cc(C)c3)c2N)cc1OCC,inactive: 72.4%

row,Compound,intracellular bacterial bioluminescence
1,Cc1cc(O)nc(SCc2nc3ncccn3c2Br)n1,inactive: 88.2%
2,Cc1cc(C)c2[nH]c(=O)c(CN(C(=O)Nc3ccccc3C)C3CC3)cc2c1,active: 194%
3,COc1cccc(CN2N=NC3C(=O)N(c4ccc(OC)c(OC)c4)C(=O)C32)c1 (stereo unspecified),inactive: 91.6%
4,Cc1csc(-c2csc(S(=O)(=O)N3CCc4ccccc4C3)c2)n1,inactive: 108%
5,Cc1ccc(NC(=O)CSc2nc3c(oc4ccccc43)c(=O)[nH]2)cc1C,inactive: 90.4%
6,Cc1cn(C2OC(COC(=O)c3ccccc3)C(O)C2O)c(=O)[nH]c1=O (stereo unspecified),inactive: 124%
7,CCOC(=O)c1ccc2cc3c(cc2c1O)OCCO3,inactive: 107%
8,Cc1ncc(C(=O)NC(c2ccccc2)c2cccnc2)c(C)n1 (stereo unspecified),inactive: 119%
9,COc1ccc(S(=O)(=O)c2nnn3c2nc(Nc2cccc(C)c2)c2ccccc23)cc1,inactive: 94.6%
10,COc1ccc(NC(=O)c2sc(C)nc2-c2ccccc2)cc1,inactive: 99.1%
11,COc1ccc(Cl)cc1Nc1nnc(C)c(=O)[nH]1,inactive: 137%
12,Cc1ccc2nc3c(cc(C(=O)NCC4CCCO4)c(=N)n3CCCn3ccnc3)c(=O)n2c1 (stereo unspecified),inactive: 102%
13,CC(=O)c1cccc(Nc2cc(C(F)(F)F)nc3ncnn23)c1,active: 157%
14,CC(=O)NC1(c2ccc(F)cc2)CCN(Cc2ccc3cccc(Cl)c3n2)CC1,inactive: 106%
15,CCc1nc(OCC(=O)NCc2ccc(OC(C)C)cc2)c2c(C)c(C)oc2n1,inactive: 78.5%
16,O=C1C=C/C(=N\Nc2cc3c(cc2[N+](=O)[O-])OCCO3)c2ccccc21,inactive: 83%
17,CCN1C(=O)c2cccc3c(NC(=O)c4ccc(Cl)s4)ccc1c23,inactive: 95.3%
18,Cc1nccn1CC(=O)N/N=C/c1ccc(O)c(O)c1,inactive: 103%
19,COc1ccc2[nH]cc(CCNC(=O)CN3C(=O)S/C(=C\c4ccc(F)cc4)C3=O)c2c1,inactive: 58.2%
20,CC(=O)c1cccc(NC(=O)c2cc3cccnc3n(C)c2=O)c1,inactive: 31.2%
21,Cc1ccc(C)c(NC(=O)c2ccc(S(=O)(=O)N3CCCCC3C)cc2)c1 (stereo unspecified),inactive: 92.6%
22,CCOC(=O)c1cnc(Nc2ccc(OC)cc2OC)c2ccccc12,inactive: 100%
23,CCn1c(CN2CCNCC2)nc2cc(C(=O)N(C)C)ccc21,inactive: 95.9%

row,Compound,intracellular bacterial bioluminescence
1,CCS(=O)(=O)c1cccc(C(=O)Nc2nc3c(C)ccc(Cl)c3s2)c1,inactive: 125%
2,CN1C(=O)CC(Sc2ncccc2C(=O)O)C1=O (stereo unspecified),inactive: 135%
3,O=C(Cn1cnc2c(nnn2-c2cccc(F)c2)c1=O)N1CCN(c2ccccc2)CC1,inactive: 124%
4,Cc1ccc(SCCCC(=O)Nc2cccc3c2C(=O)NC3=O)cc1,inactive: 89.2%
5,COc1ccc(-c2csc(NC(=O)CSc3nncn3N)n2)cc1,inactive: 98.3%
6,O=C(NC1CCCCC1)C(c1ccc(O)cc1)N(C(=O)c1cnccn1)c1cccc(F)c1 (stereo unspecified),inactive: 106%
7,CCc1ccc2c(c1)cc(CN(C(=S)Nc1cccc(C)c1C)C1CC1)c1nnnn12,inactive: 97%
8,COc1cccc(-c2cc(C(F)(F)F)n3nc(C(=O)N4CCCC4c4cc(C)on4)cc3n2)c1 (stereo unspecified),inactive: 86.4%
9,COc1ccccc1NC(=O)CSc1nnc(-n2nc(C)cc2C)c2ccccc12,inactive: 38.9%
10,CCc1cc2c(N3CCCC(C(=O)Nc4cc(C)ccc4OC)C3)ncnc2s1 (stereo unspecified),inactive: 58.7%
11,Cc1ccc(-n2nnc3c(=O)n(CC(=O)N4CCc5ccccc54)cnc32)cc1C,inactive: 138%
12,O=C(Cc1ccc(Cl)cc1)Nc1cccc(-c2ccc3nncn3n2)c1,inactive: 71.4%
13,N#CC1=C(SCC(=O)Nc2ccccc2F)NC2=C(C(=O)CCC2)C1c1ccco1 (stereo unspecified),inactive: 64.7%
14,CC1CCCCN1C(=O)CSc1ncnc2c1sc1nc3ccccc3cc12 (stereo unspecified),inactive: 105%
15,CCOc1ccccc1C1Nc2ccc(CC)cc2[C@H]2OCCC[C@@H]12 (stereo partly specified),inactive: 44.5%
16,Cc1ccc(NC(=O)C2OCOc3ccccc32)cc1N1CCCCC1 (stereo unspecified),inactive: 53.3%
17,O=C(CS(=O)CC(=O)Nc1cnc2ccccc2c1)Nc1ccc(Cl)cc1 (stereo unspecified),inactive: 72.7%
18,O=C(CSc1nc2[nH]ncc2c(=O)n1-c1ccccc1)Nc1ccc(Cl)cc1Cl,inactive: 70.2%
19,Cc1ccc(S(=O)(=O)CCCC(=O)Nc2nc3c(C)c(Cl)ccc3s2)cc1,inactive: 65.4%
20,COc1ccc(NCc2cc3c(C)nn(-c4ccccc4)c3[nH]c2=O)c(Cl)n1,inactive: 112%
21,N#Cc1nc(/C=C/c2cccs2)oc1N1CCNCC1,inactive: 92.9%
22,CC1(C)Oc2ccc(S(=O)(=O)NCCCN3CCOCC3)cc2NC1=O,inactive: 111%

# Individual results from the list.
# `O=C(CS(=O)CC(=O)Nc1cnc2ccccc2c1)Nc1ccc(Cl)cc1` (stereo unspecified) | intracellular bacterial bioluminescence: inactive: 72.7%
# `CCc1cc2c(N3CCCC(C(=O)Nc4cc(C)ccc4OC)C3)ncnc2s1` (stereo unspecified) | intracellular bacterial bioluminescence: inactive: 58.7%
# `COc1ccc(-c2csc(NC(=O)CSc3nncn3N)n2)cc1` | intracellular bacterial bioluminescence: inactive: 98.3%
# `COc1ccccc1NC(=O)CSc1nnc(-n2nc(C)cc2C)c2ccccc12` | intracellular bacterial bioluminescence: inactive: 38.9%
# `Cc1ccc(SCCCC(=O)Nc2cccc3c2C(=O)NC3=O)cc1` | intracellular bacterial bioluminescence: inactive: 89.2%
